{"source": "paper PMC8582188", "binders": {"B1": {"name": "recombinant GST-tagged Ids2 (protein, UniProt P46958 1-469)", "chain": "MDNQQESISEDITGDLAAAVRKSWSESQDNPLLLNFNNSPIGTPTDRYSPEPATMMEGNAMNLSSLARGSTQQQQRLYGSSQTREKSDQQQQDYQLFKHHYSLGQETRESVSDILNDLTLGSPEPSERASPIRQPSVDVPPLTTRRSSIQDVQWIRHLLNPRSSFSGASSNEPTNSPGDFLNQSRAWITILHDSSAESLQAVIVLAESLKNVNSQYNLWVLHSSEVNAFQLAQVGIKTLIIDEYINLFMNFGTGSGFSASSQSTETKGELNFKWCKLFLFFSLIDRFELICYLSPTCLVLQNIDELLESTEVSDEIDNETCVLLSNKVNYINEDLVSVNQDQSSAENYDDDPQIIILKPNRAVAMCIKEYFTIYGNDFEGESKRSMFHQMNDLQIMKALFGDKWSYIDSVGYCAVPIASVPANRLNYKIIEFKILKPWERQNYIAAGQHRESIMNKWLDLWRDFLNQAN"}, "B2": {"name": "Ids2 middle region (aa 92-256) (domain or fragment, UniProt P46958 92-256)", "chain": "QDYQLFKHHYSLGQETRESVSDILNDLTLGSPEPSERASPIRQPSVDVPPLTTRRSSIQDVQWIRHLLNPRSSFSGASSNEPTNSPGDFLNQSRAWITILHDSSAESLQAVIVLAESLKNVNSQYNLWVLHSSEVNAFQLAQVGIKTLIIDEYINLFMNFGTGSG"}}, "target": "recombinant His6-Atp3 (S. cerevisiae)", "assay": "pull-down; Talon-bead-bound His-tagged proteins incubated with 5 ug GST proteins; 20 mM Tris-HCl pH 7.4, 100 mM NaCl, 0.1% NP-40, 4 °C, 1 h; washed with 50 mM imidazole; immunoblot; both purified", "note": "No constants are given. Whether binding was seen depends on the method and setting. Binding calls can cover weak binding; strength is not graded here. Sequences can lack the tags named with a protein.", "data": [{"binder": "B1", "values": [{"measurement": "binding", "value": "binds"}]}, {"binder": "B2", "values": [{"measurement": "binding", "value": "binds"}]}]}
